# Measured values taken from the supplement of paper PMC8728848.
# The other results are listed elsewhere or left out.
# B1: Nc3LysM-2 (protein)
# chain: AHVLQARQSVSCDFATAANTGDTCASFAAAWGITEAAFAKLNPGVSCPGNLIAGSEYCVIGTVSTGAPTTTKAATTSTTPPTTTTTTKATTLSTSTTSVSPTGPSPQMPSITSTCNKFYQVQSGDGCWSIEQAQGVSASDFMAWNKAVDAQCDNLWLGYYVCVGVKGGSSPPPTTTTKPASSSAPTPQMPNTVSNCKKFHKVVSGDGCWAIEQAAGISASDFAKWNPYVDAACDNLWLGYYVCIGV
# Legend:
# Assay in all cases: glycan array binding signal (z-score within array); higher = stronger binding
# Settings in all cases: glycan notation: IUPAC condensed, linker removed
# Gal3S6S(b1-4)GlcNAc = biological target: Gal3S6S(b1-4)GlcNAc
# Outline: (§1)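 The binding signal is a Z-score computed within each array and averaged over linkers. Arrays of the same protein sequence at different concentrations or buffers were also averaged together. Data originate from 3228 arrays in the Consortium for Functional Glycomics database, kept only where the protein sequence was available.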
# Gal3S6S(b1-4)GlcNAc6S = biological target: Gal3S6S(b1-4)GlcNAc6S
# Outline: as §1
# Gal4S(b1-4)GlcNAc = biological target: Gal4S(b1-4)GlcNAc
# Outline: as §1
# Gal4S6S(b1-4)GlcNAc = biological target: Gal4S6S(b1-4)GlcNAc
# Outline: as §1
# Gal6P(b1-4)GlcNAc = biological target: Gal6P(b1-4)GlcNAc
# Outline: as §1
# Gal6S(b1-3)GlcNAc = biological target: Gal6S(b1-3)GlcNAc
# Outline: as §1
# Gal6S(b1-3)GlcNAc6S = biological target: Gal6S(b1-3)GlcNAc6S
# Outline: as §1
# Gal6S(b1-4)Glc = biological target: Gal6S(b1-4)Glc
# Outline: as §1
# Gal6S(b1-4)Glc6S = biological target: Gal6S(b1-4)Glc6S
# Outline: as §1
# Gal6S(b1-4)GlcNAc = biological target: Gal6S(b1-4)GlcNAc
# Outline: as §1
# Gal6S(b1-4)GlcNAc6S = biological target: Gal6S(b1-4)GlcNAc6S
# Outline: as §1
# GalNAc(a1-3)Gal = biological target: GalNAc(a1-3)Gal
# Outline: as §1
# GalNAc(a1-3)GalNAc = biological target: GalNAc(a1-3)GalNAc
# Outline: as §1
# [1] = biological target: GalNAc(a1-3)GalNAc(b1-3)Gal(a1-4)Gal(b1-4)Glc
# Outline: as §1
# [2] = biological target: GalNAc(a1-3)GalNAc(b1-3)Gal(a1-4)Gal(b1-4)GlcNAc
# Outline: as §1
# GalNAc(b1-3)Gal = biological target: GalNAc(b1-3)Gal
# Outline: as §1
# [3] = biological target: GalNAc(b1-3)Gal(a1-4)Gal(b1-4)GlcNAc
# Outline: as §1
# [4] = biological target: GalNAc(b1-3)Gal(a1-4)Gal(b1-4)GlcNAc(b1-3)Gal(b1-4)Glc
# Outline: as §1
# [5] = biological target: GalNAc(b1-3)Gal(a1-6)Gal(b1-4)Glc
# Outline: as §1
# GalNAc(b1-3)GalNAc = biological target: GalNAc(b1-3)GalNAc
# Outline: as §1
# GalNAc(b1-3)GlcNAc = biological target: GalNAc(b1-3)GlcNAc
# Outline: as §1
# GalNAc(b1-4)Gal(b1-4)Glc = biological target: GalNAc(b1-4)Gal(b1-4)Glc
# Outline: as §1
# GalNAc(b1-4)GlcNAc = biological target: GalNAc(b1-4)GlcNAc
# Outline: as §1
# [6] = biological target: GalNAc(b1-4)GlcNAc(b1-2)Man
# Outline: as §1
# [7] = biological target: GalNAc(b1-4)GlcNAc(b1-2)Man(a1-3)[GalNAc(b1-4)GlcNAc(b1-2)Man(a1-6)]Man(b1-4)GlcNAc(b1-4)GlcNAc
# Outline: as §1
# [8] = biological target: GalNAc(b1-4)GlcNAc(b1-3)GalNAc(b1-4)GlcNAc
# Outline: as §1
# GalNAc(b1-4)GlcNAc6S = biological target: GalNAc(b1-4)GlcNAc6S
# Outline: as §1
# GalNAc(b1-6)GalNAc = biological target: GalNAc(b1-6)GalNAc
# Outline: as §1
# GalNAc3S(b1-4)GlcNAc = biological target: GalNAc3S(b1-4)GlcNAc
# Outline: as §1
# GalNAc3S(b1-4)GlcNAc3S = biological target: GalNAc3S(b1-4)GlcNAc3S
# Outline: as §1
# [9] = biological target: GalNAc3S(b1-4)[Fuc(a1-3)]GlcNAc
# Outline: as §1
# GalNAc4S6S(b1-4)GlcNAc = biological target: GalNAc4S6S(b1-4)GlcNAc
# Outline: as §1
# GalNAc6S(b1-4)GlcNAc = biological target: GalNAc6S(b1-4)GlcNAc
# Outline: as §1
# Glc(a1-4)Glc = biological target: Glc(a1-4)Glc
# Outline: as §1
# [10] = biological target: Glc(a1-4)Glc(a1-4)Glc(a1-4)Glc
# Outline: as §1
# Glc(a1-6)Glc(a1-6)Glc = biological target: Glc(a1-6)Glc(a1-6)Glc
# Outline: as §1
# [11] = biological target: Glc(a1-6)Glc(a1-6)Glc(a1-6)Glc
# Outline: as §1
# Glc(b1-4)Glc = biological target: Glc(b1-4)Glc
# Outline: as §1
binder,measurement,setting,value
B1,glycan array binding signal (z-score),Gal3S6S(b1-4)GlcNAc,-0.11
same,glycan array binding signal (z-score),Gal3S6S(b1-4)GlcNAc6S,-0.858
same,glycan array binding signal (z-score),Gal4S(b1-4)GlcNAc,-1.15
same,glycan array binding signal (z-score),Gal4S6S(b1-4)GlcNAc,0.412
same,glycan array binding signal (z-score),Gal6P(b1-4)GlcNAc,-0.044
same,glycan array binding signal (z-score),Gal6S(b1-3)GlcNAc,0.632
same,glycan array binding signal (z-score),Gal6S(b1-3)GlcNAc6S,-1.34
same,glycan array binding signal (z-score),Gal6S(b1-4)Glc,0.198
same,glycan array binding signal (z-score),Gal6S(b1-4)Glc6S,1.18
same,glycan array binding signal (z-score),Gal6S(b1-4)GlcNAc,-0.694
same,glycan array binding signal (z-score),Gal6S(b1-4)GlcNAc6S,0.629
same,glycan array binding signal (z-score),GalNAc(a1-3)Gal,-0.057
same,glycan array binding signal (z-score),GalNAc(a1-3)GalNAc,0.704
same,glycan array binding signal (z-score),[1],0.034
same,glycan array binding signal (z-score),[2],0.024
same,glycan array binding signal (z-score),GalNAc(b1-3)Gal,-0.872
same,glycan array binding signal (z-score),[3],1.51
same,glycan array binding signal (z-score),[4],0.146
same,glycan array binding signal (z-score),[5],-0.246
same,glycan array binding signal (z-score),GalNAc(b1-3)GalNAc,-0.302
same,glycan array binding signal (z-score),GalNAc(b1-3)GlcNAc,-1.58
same,glycan array binding signal (z-score),GalNAc(b1-4)Gal(b1-4)Glc,-0.34
same,glycan array binding signal (z-score),GalNAc(b1-4)GlcNAc,-1.01
same,glycan array binding signal (z-score),[6],-0.338
same,glycan array binding signal (z-score),[7],1.88
same,glycan array binding signal (z-score),[8],0.67
same,glycan array binding signal (z-score),GalNAc(b1-4)GlcNAc6S,-1.02
same,glycan array binding signal (z-score),GalNAc(b1-6)GalNAc,0.877
same,glycan array binding signal (z-score),GalNAc3S(b1-4)GlcNAc,0.13
same,glycan array binding signal (z-score),GalNAc3S(b1-4)GlcNAc3S,1.45
same,glycan array binding signal (z-score),[9],2.05
same,glycan array binding signal (z-score),GalNAc4S6S(b1-4)GlcNAc,-0.872
same,glycan array binding signal (z-score),GalNAc6S(b1-4)GlcNAc,0.893
same,glycan array binding signal (z-score),Glc(a1-4)Glc,-0.04
same,glycan array binding signal (z-score),[10],0.646
same,glycan array binding signal (z-score),Glc(a1-6)Glc(a1-6)Glc,-0.188
same,glycan array binding signal (z-score),[11],-0.344
same,glycan array binding signal (z-score),Glc(b1-4)Glc,-1.11

# Random excerpt: 2 records from the list
binder,measurement,setting,value
B1,glycan array binding signal (z-score),Gal6S(b1-4)Glc,0.198
same,glycan array binding signal (z-score),[6],-0.338
